No constants are given. Whether binding was seen depends on the method and setting. For some of these results: Binding can be weak; no strength is given. Tags and fused reporters may be left off the sequences shown.

This is an account of results in PMC5814800.

Assay in all cases: two-hybrid; bacterial two-hybrid (adenylate cyclase T18 and T25 fusions) in E. coli BTH101; colony colour on LB agar with IPTG and X-Gal, 30°C, 24–48 h
Assay [1] has as its target T1, T18 fused to ϕC31 integrase aa 200–407 (pEY118) (Streptomyces phage ϕC31) (UniProt Q9T221).
T1 sequence: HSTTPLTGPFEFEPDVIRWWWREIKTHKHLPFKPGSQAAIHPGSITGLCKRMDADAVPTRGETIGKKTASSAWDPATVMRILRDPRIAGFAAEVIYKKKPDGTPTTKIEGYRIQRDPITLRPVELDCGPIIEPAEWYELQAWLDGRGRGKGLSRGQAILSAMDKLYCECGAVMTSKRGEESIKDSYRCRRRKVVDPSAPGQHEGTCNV

Assay [2] addresses T2, wild-type ϕC31 integrase fused to T18 (Int-T18 fusion, pEY111) (Streptomyces phage ϕC31) (UniProt Q9T221).
T2 sequence: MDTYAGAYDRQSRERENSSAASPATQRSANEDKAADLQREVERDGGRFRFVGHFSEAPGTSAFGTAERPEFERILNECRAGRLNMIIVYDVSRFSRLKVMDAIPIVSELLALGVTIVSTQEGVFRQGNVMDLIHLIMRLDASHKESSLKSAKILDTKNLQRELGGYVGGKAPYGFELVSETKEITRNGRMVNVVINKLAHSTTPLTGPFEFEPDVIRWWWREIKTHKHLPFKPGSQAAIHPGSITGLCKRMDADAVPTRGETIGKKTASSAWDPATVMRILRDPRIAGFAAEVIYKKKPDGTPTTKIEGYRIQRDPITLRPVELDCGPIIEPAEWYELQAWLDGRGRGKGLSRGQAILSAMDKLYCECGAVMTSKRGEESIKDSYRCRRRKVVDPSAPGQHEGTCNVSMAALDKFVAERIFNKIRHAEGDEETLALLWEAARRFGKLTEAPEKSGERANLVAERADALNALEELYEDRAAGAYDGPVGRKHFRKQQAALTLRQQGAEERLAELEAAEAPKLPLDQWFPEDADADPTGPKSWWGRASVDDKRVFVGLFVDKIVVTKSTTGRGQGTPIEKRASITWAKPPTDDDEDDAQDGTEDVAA

Assay [3] concerns the target T3, T18 fused to ϕC31 integrase aa 1–407 (pEY115) (Streptomyces phage ϕC31) (UniProt Q9T221).
T3 sequence: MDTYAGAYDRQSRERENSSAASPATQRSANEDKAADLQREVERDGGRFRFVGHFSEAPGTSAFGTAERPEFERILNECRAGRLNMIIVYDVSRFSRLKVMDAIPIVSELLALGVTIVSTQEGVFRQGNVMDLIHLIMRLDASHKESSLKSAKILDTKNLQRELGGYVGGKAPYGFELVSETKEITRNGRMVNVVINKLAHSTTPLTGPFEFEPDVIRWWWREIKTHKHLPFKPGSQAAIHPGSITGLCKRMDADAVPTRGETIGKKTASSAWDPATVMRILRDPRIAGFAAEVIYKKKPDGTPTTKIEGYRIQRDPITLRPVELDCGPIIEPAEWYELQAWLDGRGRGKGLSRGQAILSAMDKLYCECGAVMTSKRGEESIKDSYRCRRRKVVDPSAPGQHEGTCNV

Assay [4] has as its target T4, T18 fused to ϕC31 integrase aa 1–203 (pEY114) (Streptomyces phage ϕC31) (UniProt Q9T221).
T4 sequence: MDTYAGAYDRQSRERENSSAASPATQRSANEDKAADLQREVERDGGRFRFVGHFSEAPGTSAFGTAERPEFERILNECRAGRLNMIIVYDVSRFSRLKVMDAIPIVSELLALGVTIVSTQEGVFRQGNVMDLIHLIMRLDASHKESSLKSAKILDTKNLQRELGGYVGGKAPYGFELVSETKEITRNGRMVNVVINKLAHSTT

For assay [5], the target named is T5, T18 fused to ϕC31 integrase aa 200–605 (pEY116) (Streptomyces phage ϕC31) (UniProt Q9T221).
T5 sequence: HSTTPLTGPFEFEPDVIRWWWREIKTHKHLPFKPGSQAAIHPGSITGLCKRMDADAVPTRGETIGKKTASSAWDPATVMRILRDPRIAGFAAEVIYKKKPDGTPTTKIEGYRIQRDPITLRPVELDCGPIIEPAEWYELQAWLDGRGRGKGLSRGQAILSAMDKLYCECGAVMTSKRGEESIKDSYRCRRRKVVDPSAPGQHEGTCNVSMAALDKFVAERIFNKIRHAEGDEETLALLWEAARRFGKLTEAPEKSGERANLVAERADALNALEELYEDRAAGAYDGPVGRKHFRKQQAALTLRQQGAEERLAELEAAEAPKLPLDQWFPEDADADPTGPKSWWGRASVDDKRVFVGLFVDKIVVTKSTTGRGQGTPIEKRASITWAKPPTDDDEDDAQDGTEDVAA

Assay [6] addresses T6, T18 fused to ϕC31 integrase aa 404–605 (pEY117) (Streptomyces phage ϕC31) (UniProt Q9T221).
T6 sequence: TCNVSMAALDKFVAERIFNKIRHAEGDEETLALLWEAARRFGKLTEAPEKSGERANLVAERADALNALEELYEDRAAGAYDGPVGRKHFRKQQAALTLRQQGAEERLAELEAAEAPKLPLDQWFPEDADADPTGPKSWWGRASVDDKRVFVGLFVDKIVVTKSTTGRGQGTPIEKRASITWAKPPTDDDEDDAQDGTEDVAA

In assay [7] the target is T7, T18 fused to full length ϕC31 integrase (aa 1–605; pEY110) (Streptomyces phage ϕC31) (UniProt Q9T221).
T7 sequence: T2 sequence

With “T25-ϕC31 gp3 (wild type) fusion protein (Streptomyces phage ϕC31)”, the binding result in assay [1] is “no binding”; in assay [2] it was “binds”; in assay [3], “no binding”; in assay [4], “no binding”; in assay [5], “binds”; in assay [6], “binds”. The binding result in assay [7] is “binds”.
